Values quoted from earlier work as cited in paper PMC10873626, “Acceleration of infectious disease drug discovery and development using a humanized model of drug metabolism” (Proceedings of the National Academy of Sciences of the …, 2024).

Tested on: CYP
Settings: cited from earlier work

In the case of `O=C(O)c1cn(C2CC2)c2cc(N3CCNCC3)c(F)cc2c1=O` [Ciprofloxacin], the “CYP interaction: Inhibitor” value is listed as 1A2, 2D6.
